Source: publication PMC10698143
These are yes or no findings as the source states them, for the method shown. Binding seen in cells or lysates may run through a third protein. Here binding means that the protein was enriched with, or labelled near, the bait; the list need not be complete.

Protein sequences, listed by entry. Tags and fused reporters are not part of them.
UniProt P15056: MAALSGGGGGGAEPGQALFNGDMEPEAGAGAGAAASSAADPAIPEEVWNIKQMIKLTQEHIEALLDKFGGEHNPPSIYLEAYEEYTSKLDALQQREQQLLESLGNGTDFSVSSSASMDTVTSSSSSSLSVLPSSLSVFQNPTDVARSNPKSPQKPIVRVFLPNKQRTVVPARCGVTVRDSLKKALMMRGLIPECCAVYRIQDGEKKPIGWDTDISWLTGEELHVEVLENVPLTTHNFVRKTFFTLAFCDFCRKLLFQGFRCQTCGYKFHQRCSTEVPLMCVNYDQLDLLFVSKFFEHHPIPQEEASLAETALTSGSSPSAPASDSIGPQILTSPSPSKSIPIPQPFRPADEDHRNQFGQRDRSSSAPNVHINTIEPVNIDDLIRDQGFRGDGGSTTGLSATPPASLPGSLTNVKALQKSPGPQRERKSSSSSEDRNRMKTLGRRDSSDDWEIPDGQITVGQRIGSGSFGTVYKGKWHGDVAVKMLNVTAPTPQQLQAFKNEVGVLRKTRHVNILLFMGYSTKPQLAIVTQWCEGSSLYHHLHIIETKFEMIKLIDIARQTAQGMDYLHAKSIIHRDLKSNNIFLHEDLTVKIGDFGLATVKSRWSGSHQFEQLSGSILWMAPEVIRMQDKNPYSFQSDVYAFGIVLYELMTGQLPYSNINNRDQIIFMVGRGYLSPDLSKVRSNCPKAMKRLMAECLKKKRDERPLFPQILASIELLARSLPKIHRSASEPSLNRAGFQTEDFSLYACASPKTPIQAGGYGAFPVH
UniProt Q9UKI8: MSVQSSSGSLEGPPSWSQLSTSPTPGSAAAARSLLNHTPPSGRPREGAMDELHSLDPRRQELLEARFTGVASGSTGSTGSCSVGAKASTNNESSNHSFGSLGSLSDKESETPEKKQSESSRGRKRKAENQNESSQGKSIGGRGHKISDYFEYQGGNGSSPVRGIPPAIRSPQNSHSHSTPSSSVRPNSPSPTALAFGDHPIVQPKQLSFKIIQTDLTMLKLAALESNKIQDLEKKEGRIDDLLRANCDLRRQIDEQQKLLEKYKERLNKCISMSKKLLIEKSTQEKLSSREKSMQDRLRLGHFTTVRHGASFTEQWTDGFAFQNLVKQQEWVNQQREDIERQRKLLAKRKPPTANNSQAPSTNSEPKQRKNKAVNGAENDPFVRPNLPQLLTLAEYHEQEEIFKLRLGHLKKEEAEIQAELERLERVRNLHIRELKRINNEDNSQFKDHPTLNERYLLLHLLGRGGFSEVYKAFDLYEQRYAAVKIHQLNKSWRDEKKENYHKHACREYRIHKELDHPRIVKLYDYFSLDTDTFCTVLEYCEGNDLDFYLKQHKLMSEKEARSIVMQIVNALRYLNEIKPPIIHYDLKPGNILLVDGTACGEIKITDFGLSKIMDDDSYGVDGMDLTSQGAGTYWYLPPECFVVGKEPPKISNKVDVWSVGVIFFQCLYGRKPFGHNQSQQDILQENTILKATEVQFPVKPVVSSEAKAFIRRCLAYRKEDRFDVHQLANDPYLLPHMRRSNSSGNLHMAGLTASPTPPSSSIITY

Biological target: T1, Macrophage migration inhibitory factor (MIF) (human (endogenous in RCTE)) (UniProt P14174)
T1 sequence: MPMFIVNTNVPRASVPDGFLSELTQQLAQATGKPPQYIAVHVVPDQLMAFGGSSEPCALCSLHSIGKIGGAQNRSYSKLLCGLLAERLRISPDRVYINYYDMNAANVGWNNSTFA
Assay: peptide or protein array + affinity purification with mass spectrometry; hits named jointly for the HuProt protein chip screen and the MIF IP-MS screen; which screen found which kinase is not told

“BRAF (from UniProt P15056 1-766) (enzyme)” was tested, and the binding was “binds”.

In the case of “TLK1 (from UniProt Q9UKI8 1-766) (enzyme)”, the binding is reported as “binds”.
